Article PMC7872283

Biological target: T1, FLAG-tagged checkpoint with FHA and RING finger domains (CHFR) (UniProt Q96EP1)
T1 sequence: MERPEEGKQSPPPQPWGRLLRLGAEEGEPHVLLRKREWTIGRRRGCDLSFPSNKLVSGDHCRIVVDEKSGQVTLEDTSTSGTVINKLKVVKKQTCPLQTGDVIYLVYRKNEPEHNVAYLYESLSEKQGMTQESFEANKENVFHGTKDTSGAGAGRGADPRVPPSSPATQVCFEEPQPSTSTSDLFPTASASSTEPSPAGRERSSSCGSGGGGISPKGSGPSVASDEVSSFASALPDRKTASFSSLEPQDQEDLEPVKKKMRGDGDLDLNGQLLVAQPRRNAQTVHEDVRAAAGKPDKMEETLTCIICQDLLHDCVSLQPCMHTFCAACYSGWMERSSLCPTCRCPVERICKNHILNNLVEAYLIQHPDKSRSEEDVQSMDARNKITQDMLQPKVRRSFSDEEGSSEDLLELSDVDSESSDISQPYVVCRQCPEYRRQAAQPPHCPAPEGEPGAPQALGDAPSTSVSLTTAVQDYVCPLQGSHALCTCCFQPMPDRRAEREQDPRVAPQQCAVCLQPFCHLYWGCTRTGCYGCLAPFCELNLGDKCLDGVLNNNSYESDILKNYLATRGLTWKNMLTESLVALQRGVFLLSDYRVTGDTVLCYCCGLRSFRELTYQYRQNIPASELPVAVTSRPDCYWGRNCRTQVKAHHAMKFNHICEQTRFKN
Experiment: co-IP

MYC-tagged PF-8 ΔC (domain or fragment)
binding: binds

These are yes or no findings as the source states them, for the method shown. Binding seen in cells or lysates may run through a third protein. A result given as binding can be weak or reduced; the word gives no strength. Sequences can lack the tags named with a protein.
